Data as given in PubChem BioAssay AID493246 (Drosophila RNAi Screening Center, 2011)
The deposit covers about 21,000 reagents; this is an unselected part of those that have a named target and a result. Of all reagents, 429 (2%) were called active. 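Values are raw and not normalised between plates; calls rest on per-plate z-scores that were not deposited.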 A plus sign joins genes that one reagent is predicted to hit. The record does not give: the amount of reagent, the time to read-out.

Screen: 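Genome-wide search for dsRNAs that reduce cell number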 (primary screen)
Cells: Drosophila Kc and S2R+ cells
Reagent: long dsRNA against Drosophila genes
Read-out: 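Cell number per well after knock-down, printed as raw plate values; calls were based on per-plate z-scores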
Scale: Kc cell number and S2R+ cell number: higher = more cells remaining
Active means: 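Active when the per-plate z-score of cell number is 3 or more in the direction of fewer cells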

| gene knocked down | dsRNA | Kc cell number, rep 1 | Kc cell number, rep 2 | S2R+ cell number, rep 1 | S2R+ cell number, rep 2 | call |
| --- | --- | --- | --- | --- | --- | --- |
| ECSIT | DRSC12348 | 1.38e6 | 1.55e6 | 1.24e6 | 1.32e6 | inactive |
| CG8008 | DRSC07053 | 1.15e6 | 1.38e6 | 9.39e5 | 1.00e6 | inactive |
| CG34012 | DRSC09089 | 1.48e6 | 1.57e6 | 1.19e6 | 1.35e6 | inactive |
| APC7 | DRSC17937 | 5.31e5 | – | 8.87e5 | – | inactive |
| CG14309 | DRSC14788 | 1.22e6 | 1.28e6 | 1.07e6 | 1.12e6 | inactive |
| mRpS14 | DRSC19444 | 1.42e6 | 1.44e6 | 1.01e6 | 1.07e6 | inactive |
| CG31560 | DRSC12136 | 1.67e6 | 1.79e6 | 1.36e6 | 1.57e6 | inactive |
| CG33791 + CG18170 | DRSC08523 | 1.39e6 | 1.44e6 | 1.08e6 | 1.23e6 | inactive |
| CG33791 + CG18170 | DRSC08601 | 1.40e6 | 1.40e6 | 1.03e6 | 1.18e6 | inactive |
| eRF1 | DRSC11779 | 1.50e6 | 1.61e6 | 1.12e6 | 1.17e6 | inactive |
| CG17107 | DRSC02575 | 1.50e6 | 1.48e6 | 1.08e6 | 1.16e6 | inactive |
| CatB | DRSC03194 | 1.34e6 | 1.31e6 | 1.09e6 | 9.24e5 | inactive |
| scpr-A + scpr-C + scpr-B | DRSC15715 | 1.50e6 | 1.45e6 | 1.29e6 | 1.37e6 | inactive |
| CG42366 | DRSC02760 | 1.43e6 | 1.49e6 | 1.15e6 | 1.35e6 | inactive |
| ssp6 | DRSC08791 | 1.63e6 | 1.74e6 | 1.05e6 | 1.23e6 | inactive |
| ssp6 | DRSC10677 | 1.54e6 | 1.50e6 | 8.07e5 | 9.38e5 | inactive |
| Skp2 | DRSC12329 | 1.75e6 | 1.83e6 | 1.54e6 | 1.62e6 | inactive |
| CG30460 | DRSC06559 | 1.61e6 | 1.65e6 | 1.14e6 | 1.21e6 | inactive |
| CG30460 | DRSC06560 | 8.65e5 | 1.34e6 | 4.05e5 | 5.40e5 | active |
| CG7017 | DRSC10762 | 1.59e6 | 1.64e6 | 1.20e6 | 1.41e6 | inactive |
| CG10232 | DRSC14218 | 1.52e6 | 1.52e6 | 9.76e5 | 1.07e6 | inactive |

Continued (4 carried over from the part before).
| gene knocked down | dsRNA | Kc cell number, rep 1 | Kc cell number, rep 2 | S2R+ cell number, rep 1 | S2R+ cell number, rep 2 | call |
| --- | --- | --- | --- | --- | --- | --- |
| CG30460 | DRSC06559 | 1.61e6 | 1.65e6 | 1.14e6 | 1.21e6 | inactive |
| CG30460 | DRSC06560 | 8.65e5 | 1.34e6 | 4.05e5 | 5.40e5 | active |
| CG7017 | DRSC10762 | 1.59e6 | 1.64e6 | 1.20e6 | 1.41e6 | inactive |
| CG10232 | DRSC14218 | 1.52e6 | 1.52e6 | 9.76e5 | 1.07e6 | inactive |
| CNBP | DRSC04116 | 1.61e6 | 1.73e6 | 1.32e6 | 1.51e6 | inactive |
| CNBP | DRSC04419 | 1.63e6 | 1.67e6 | 1.10e6 | 1.21e6 | inactive |
| CG9184 | DRSC08636 | 1.41e6 | 1.76e6 | 1.04e6 | 1.20e6 | inactive |
| CG31029 | DRSC15422 | 1.43e6 | 1.50e6 | 1.02e6 | 1.11e6 | inactive |
| plh | DRSC12294 | 1.80e6 | 1.76e6 | 1.35e6 | 1.46e6 | inactive |
| Polr3F | DRSC15785 | 1.37e6 | 1.42e6 | 1.08e6 | 1.18e6 | inactive |
| CG16717 | DRSC10221 | 1.48e6 | 1.67e6 | 1.41e6 | 1.57e6 | inactive |
| CG6484 | DRSC06991 | 1.36e6 | 1.45e6 | 1.07e6 | 1.10e6 | inactive |
| Gal | DRSC03134 | 1.63e6 | 1.58e6 | 1.24e6 | 1.37e6 | inactive |
| OSCP1 | DRSC06304 | 1.53e6 | 1.53e6 | 1.28e6 | 1.41e6 | inactive |
| Pvf2 | DRSC02283 | 1.51e6 | 1.55e6 | 1.20e6 | 1.31e6 | inactive |
| Cyp6w1 | DRSC04909 | 1.38e6 | 1.45e6 | 1.11e6 | 1.17e6 | inactive |
| COX2 (retired record) | DRSC21276 | 1.57e6 | 1.60e6 | 1.18e6 | 1.27e6 | inactive |
| CG14711 + Zaf1 | DRSC14934 | 1.36e6 | 1.47e6 | 1.33e6 | 1.42e6 | inactive |
| cindr | DRSC14126 | 5.56e5 | – | 9.09e5 | – | inactive |
| cindr | DRSC14298 | 1.44e6 | 1.43e6 | 8.91e5 | 9.60e5 | inactive |
| CG33191 + Pif1B | DRSC12706 | 1.37e6 | 1.47e6 | 1.08e6 | 1.30e6 | inactive |
| Itpr | DRSC12354 | 1.53e6 | 1.63e6 | 1.32e6 | 1.50e6 | inactive |
| CG13066 | DRSC09949 | 1.37e6 | 1.56e6 | 1.29e6 | 1.42e6 | inactive |
